Assay results as given in the supplement of paper PMC10331698.
± gives the standard deviation of the averaged measurements. Small differences around the control level are noise.

Columns and labels:
Test in all cases: level (log10 ratio to DMSO vehicle control); higher = higher biomarker level / cell amount than vehicle control
[1] = compound: NC(=O)C(F)(F)C(F)(F)C(F)(F)F [Heptafluorobutyramide]; conditions: 2200 nM; in DMSO
Description: (§1)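 BioMAP Diversity Plus panel of 12 human primary cell co-culture systems (3C, 4H, LPS, SAg, BT, BF4T, BE3C, CASM3C, HDF3CGF, KF3CT, MyoF, Mphg). Compounds were added 1 h before stimulation and left for 24 h (MyoF 48 h; BT 72 h for soluble read-outs or 6 d for IgG). Biomarkers were read by ELISA, cytotoxicity by SRB, PBMC viability and proliferation by Alamar Blue. Each well value was divided by the mean of 8 DMSO control wells on the same plate and log10 transformed; duplicate blinded samples were tested at 4 concentrations.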

[2] = compound: O=C(O)C(F)(F)C(F)(F)C(F)(F)C(F)(F)F [Perfluoropentanoic acid]; conditions: in DMSO
Description: as §1

[3] = compound: CC(C)(C)C(=O)CC(=O)C(F)(F)C(F)(F)C(F)(F)F [(Heptafluorobutanoyl)pivaloylmethane]; conditions: 2200 nM; in DMSO
Description: as §1

[4] = compound: CCN(CCO)S(=O)(=O)C(F)(F)C(F)(F)C(F)(F)C(F)(F)C(F)(F)C(F)(F)C(F)(F)C(F)(F)F [N-Ethyl-N-(2-hydroxyethyl)perfluorooctanesulfonamide]; conditions: in DMSO
Description: as §1

[5] = compound: OCC(F)(F)C(F)(F)C(F)(F)F [1H,1H-Heptafluorobutanol]; conditions: 2200 nM; in DMSO
Description: as §1

[6] = compound: CCCCCCCCC(F)(F)C(F)(F)C(F)(F)C(F)(F)C(F)(F)C(F)(F)F [1-(Perfluorohexyl)octane]; conditions: in DMSO
Description: as §1

[7] = compound: OCCC(F)(F)C(F)(F)C(F)(F)C(F)(F)C(F)(F)C(F)(F)F [6:2 Fluorotelomer alcohol]; conditions: 2200 nM; in DMSO
Description: as §1

[8] = compound: NCC(F)(F)C(F)(F)C(F)(F)C(F)(F)C(F)(F)C(F)(F)C(F)(F)F [1H,1H-Perfluorooctylamine]; conditions: 2200 nM; in DMSO
Description: as §1

[9] = compound: CN(C(=O)C(F)(F)C(F)(F)C(F)(F)F)[Si](C)(C)C [N-Methyl-N-trimethylsilylheptafluorobutyramide]; conditions: 2200 nM; in DMSO
Description: as §1

[10] = compound: O=C(O)C(F)(F)C(F)(F)C(F)(F)C(F)(F)C(F)(F)C(F)(F)C(F)(F)C(F)(F)C(F)(F)C(F)F [11-H-Perfluoroundecanoic acid]; conditions: 2200 nM; in DMSO
Description: as §1

[11] = compound: FC(F)(F)C(F)(F)C(F)(F)C(F)(F)C(F)(F)C(F)(F)CC1CO1 [3-(Perfluorohexyl)-1,2-epoxypropane]; conditions: 2200 nM; in DMSO
Description: as §1

[12] = compound: O=S(=O)(O)CCC(F)(F)C(F)(F)C(F)(F)C(F)(F)C(F)(F)C(F)(F)C(F)(F)C(F)(F)F [8:2 Fluorotelomer sulfonic acid]; conditions: in DMSO
Description: as §1

[13] = compound: O=C(O)C(F)(F)C(F)(F)C(F)(F)C(F)(F)C(=O)O [Octafluoroadipic acid]; conditions: 2200 nM; in DMSO
Description: as §1

[14] = compound: O=C(O)C(F)(F)C(F)(F)C(F)(F)C(F)(F)C(F)(F)C(F)(F)F [Perfluoroheptanoic acid]; conditions: in DMSO
Description: as §1

[15] = compound: O=C(O)C(F)(F)C(F)(F)C(F)(F)OC(F)(F)F [Perfluoro(4-methoxybutanoic) acid]; conditions: 2200 nM; in DMSO
Description: as §1

[16] = compound: Cc1ccc(S(=O)(=O)OCC(F)(F)C(F)(F)C(F)(F)C(F)(F)C(F)(F)C(F)F)cc1 [1H,1H,7H-Perfluoroheptyl 4-methylbenzenesulfonate]; conditions: 2200 nM; in DMSO
Description: as §1

Test System	level (log10) [1]	level (log10) ([2]; 2200 nM)	level (log10) ([2]; 6700 nM)	level (log10) ([2]; 20000 nM)	level (log10) ([2]; 60000 nM)	level (log10) [3]	level (log10) ([4]; 2200 nM)	level (log10) ([4]; 6700 nM)	level (log10) ([4]; 20000 nM)	level (log10) [5]	level (log10) ([6]; 740 nM)	level (log10) ([6]; 2200 nM)	level (log10) [7]	level (log10) [8]	level (log10) [9]	level (log10) [10]	level (log10) [11]	level (log10) ([12]; 2200 nM)	level (log10) ([12]; 6700 nM)	level (log10) ([12]; 20000 nM)	level (log10) ([12]; 60000 nM)	level (log10) [13]	level (log10) ([14]; 2200 nM)	level (log10) ([14]; 6700 nM)	level (log10) ([14]; 20000 nM)	level (log10) ([14]; 60000 nM)	level (log10) [15]	level (log10) [16]
3C:CXCL9/MIG	-0.007 ± 0.0014	0.001 ± 0.0014	-0.0085 ± 0.018	-0.0125 ± 0.03	0.0095 ± 0.028	-0.007 ± 0.0014	0.0055 ± 0.005	-0.013 ± 0.0085	-0.006 ± 0.0085	0 ± 0.0028	-0.0035 ± 0.023	0.0035 ± 0.026	0.0095 ± 0.0064	-0.0115 ± 0.0092	-0.006 ± 0.0042	0.0115 ± 0.0035	0.006 ± 0.011	0.0075 ± 0.00071	-0.004 ± 0.0014	0.004 ± 0.013	-0.0045 ± 0.0035	0.002 ± 0.011	0.01	0.0115 ± 0.0035	-0.01 ± 0.0071	0.0135 ± 0.0078	-0.001 ± 0.011	0.0095 ± 0.005
3C:HLA-DR	-0.003 ± 0.0014	0.006 ± 0.0028	-0.0075 ± 0.0035	0.0015 ± 0.021	0.018 ± 0.037	0.0065 ± 0.018	0.0035 ± 0.015	0.013 ± 0.025	-0.0625 ± 0.016	0.0015 ± 0.021	0.011 ± 0.016	0.011 ± 0.0099	0.028 ± 0.017	0.0195 ± 0.052	0.0095 ± 0.0035	0.0205 ± 0.0035	0.021	-0.0045 ± 0.012	-0.0155 ± 0.012	-0.011 ± 0.0071	-0.011 ± 0.0085	0.008 ± 0.021	0.032 ± 0.0028	0.006 ± 0.017	0.004 ± 0.013	0.034 ± 0.047	0.006 ± 0.0028	0.0085 ± 0.023
3C:Proliferation	-0.001 ± 0.069	-0.019 ± 0.021	-0.029 ± 0.028	0.011	0.0015 ± 0.046	-0.019 ± 0.059	-0.0995 ± 0.1	-0.267 ± 0.087	-0.947 ± 0.17	-0.0245 ± 0.0078	-0.0495 ± 0.05	-0.0135 ± 0.057	-0.0275 ± 0.043	0.001 ± 0.044	0.0055 ± 0.016	-0.0045 ± 0.00071	-0.0135 ± 0.026	-0.025 ± 0.031	0.004 ± 0.086	-0.0315 ± 0.083	-0.053 ± 0.018	-0.0035 ± 0.016	-0.069 ± 0.023	-0.0365 ± 0.028	0.0245 ± 0.057	-0.109 ± 0.057	-0.0975 ± 0.0064	-0.054 ± 0.045
3C:SRB	-0.016 ± 0.0028	-0.0135 ± 0.021	-0.0115 ± 0.013	0.001 ± 0.014	0.007 ± 0.018	0.001 ± 0.0042	-0.029 ± 0.018	-0.0815 ± 0.021	-0.217 ± 0.011	-0.007 ± 0.0057	0.0165 ± 0.0078	0.002 ± 0.017	-0.025 ± 0.0028	0 ± 0.013	0.0045 ± 0.022	0.01 ± 0.033	0.0075 ± 0.0035	-0.0165 ± 0.00071	-0.017 ± 0.0057	-0.019 ± 0.018	-0.0705 ± 0.028	-0.0235 ± 0.018	-0.008 ± 0.0071	-0.0065 ± 0.0078	0.005 ± 0.0085	-0.0255 ± 0.0035	-0.0205 ± 0.0021	0.0045 ± 0.043
